PubChem BioAssay AID504786 | Drosophila RNAi Screening Center – 2011
Purpose: 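Fly genes required for HIF-dependent transcription when hypoxia is mimicked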 (primary screen). Cell system: Drosophila S2 cells with a stable HIF luciferase reporter. Knock-down reagent: long dsRNA against Drosophila genes, about 0.2 µg dsRNA per well of a 384-well plate. Timing: three days of knock-down, then 20 h of DFO before reading. Challenge: desferrioxamine (DFO) at 100 µM, an iron chelator that mimics hypoxia, for 20 h. Measurement: 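HIF reporter luminescence in cells given 100 µM DFO for 20 h, using the mouse ldh-a hypoxia-response element, scored as per-plate z-scores; higher means greater loss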. Scale: z-score: higher = stronger loss of HIF reporter signal.
The deposit covers about 21,000 reagents; below is an unselected part of those that have a named target and a result. 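Primary screen; positive scores mean lost reporter signal, so the sign may be inverted from the usual convention.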 A plus sign joins genes that one reagent is predicted to hit.

| predicted target | DRSC id | z-score, replicate 1 | z-score, replicate 2 | z-score, replicate 3 | z-score, replicate 4 |
| --- | --- | --- | --- | --- | --- |
| CG18190 (GeneID 37179) | DRSC06714 | 0 | -0.1 | – | – |
| CG30334 (GeneID 246545) | DRSC05345 | -0.1 | -0.1 | – | – |
| CG32450 (GeneID 318034) | DRSC11546 | 0.1 | 0.1 | – | – |
| CG5984 (GeneID 43281) | DRSC15930 | -0.2 | -0.7 | – | – |
| daw (GeneID 33474) | DRSC00479 | -0.4 | -0.2 | – | – |
| CG12016 + Dpm2 | DRSC08224 | -0.1 | 0.5 | – | – |
| ms(2)35Ci (GeneID 49529) | DRSC01460 | -0.1 | -0.4 | – | – |
| Hsdl2 (GeneID 43325) | DRSC15839 | -0.3 | -0.4 | – | – |
| nst (GeneID 39434) | DRSC09755 | -0.4 | -0.5 | – | – |
| CG16753 (GeneID 38365) | DRSC08489 | -0.1 | 0.1 | – | – |
| CG3546 (GeneID 31389) | DRSC18308 | -0.4 | -0.5 | – | – |
| CG31437 (GeneID 318735) | DRSC13711 | -0.2 | -0.8 | 0 | -0.4 |
| CG3529 (GeneID 39093) | DRSC10369 | -0.2 | 0.4 | – | – |
| CG8160 (GeneID 36701) | DRSC07086 | -0.4 | -0.1 | -0.4 | -0.3 |
| dgt6 (GeneID 43441) | DRSC14424 | -0.2 | -0.3 | – | – |
| Snx27 (GeneID 31493) | DRSC17786 | -0.3 | -0.3 | – | – |
| Snx27 (GeneID 31493) | DRSC18282 | -0.2 | -0.1 | – | – |
| Snx27 (GeneID 31493) | DRSC18284 | -0.3 | -0.3 | – | – |
| CG13460 (GeneID 39638) | DRSC10007 | 0 | -0.5 | – | – |
| Hph (GeneID 40633) | DRSC12164 | 2.4 | 2.1 | – | – |
| Hph (GeneID 40633) | DRSC12251 | 0.3 | 0.9 | – | – |
| CG9114 (GeneID 32460) | DRSC20155 | -0.3 | -0.9 | – | – |
| Gr85a (GeneID 117475) | DRSC12760 | -0.2 | 0.3 | – | – |
| CG6398 (GeneID 32761) | DRSC19992 | -0.2 | -0.2 | – | – |
| CG9691 (GeneID 31923) | DRSC18441 | -0.2 | -0.4 | – | – |
| rols (GeneID 39368) | DRSC09873 | 0.3 | 0.1 | – | – |
| rols (GeneID 39368) | DRSC10254 | -0.3 | -0.1 | – | – |
| rols (GeneID 39368) | DRSC10536 | -0.2 | 0 | – | – |
| b6 (GeneID 31124) | DRSC18740 | 0.1 | 0 | – | – |
| CG42713 (GeneID 10178890) | DRSC01050 | 0.1 | 0 | – | – |
| Hn (GeneID 38871) | DRSC11184 | -0.4 | -0.6 | – | – |
| RpL40 (GeneID 33629) | DRSC00782 | 4.9 | 5 | – | – |
| Osi16 (GeneID 318801) | DRSC12135 | -0.2 | 0 | – | – |
| Klp59C (GeneID 37671) | DRSC04348 | -0.4 | -1 | – | – |
| Abcd1 (GeneID 43772) | DRSC17157 | -0.1 | -0.3 | – | – |
| CG6553 (GeneID 36537) | DRSC07002 | -0.1 | -0.2 | – | – |
| Hrb27C (GeneID 33968) | DRSC03347 | -0.5 | -1.4 | – | – |
| CG9815 (GeneID 37710) | DRSC04567 | 0.3 | 0.3 | – | – |
| CG14309 (GeneID 42212) | DRSC14788 | -0.8 | 0 | – | – |
| CG7044 (GeneID 42497) | DRSC16180 | -0.2 | -0.4 | – | – |
| ldbr (GeneID 38900) | DRSC10933 | -0.2 | 0 | – | – |
| CG14829 (GeneID 38792) | DRSC10199 | 0 | 0.6 | – | – |

Records listed so far whose gene name starts with R or r:
| predicted target | DRSC id | z-score, replicate 1 | z-score, replicate 2 | z-score, replicate 3 | z-score, replicate 4 |
| --- | --- | --- | --- | --- | --- |
| rols (GeneID 39368) | DRSC09873 | 0.3 | 0.1 | – | – |
| rols (GeneID 39368) | DRSC10254 | -0.3 | -0.1 | – | – |
| rols (GeneID 39368) | DRSC10536 | -0.2 | 0 | – | – |
| RpL40 (GeneID 33629) | DRSC00782 | 4.9 | 5 | – | – |

Next entries follow.
| predicted target | DRSC id | z-score, replicate 1 | z-score, replicate 2 | z-score, replicate 3 | z-score, replicate 4 |
| --- | --- | --- | --- | --- | --- |
| Hinfp (GeneID 47718) | DRSC18484 | -0.3 | -0.2 | – | – |
| CG15059 (GeneID 32806) | DRSC19633 | -0.3 | -0.8 | – | – |
| Zif (GeneID 40795) | DRSC12514 | -0.5 | -1.1 | – | – |
| CG3224 (GeneID 31600) | DRSC18295 | -0.2 | 1.3 | – | – |
| CG3156 (GeneID 30994) | DRSC18503 | -0.3 | -0.4 | – | – |
| CG18467 (GeneID 36958) | DRSC06758 | -0.3 | -0.4 | – | – |
| Uvrag (GeneID 34735) | DRSC02932 | -0.2 | -0.3 | – | – |
| Mau2 (GeneID 41830) | DRSC15550 | 0 | 0.2 | – | – |
| Wsck (GeneID 318600) | DRSC13682 | -0.2 | -0.1 | – | – |
| Dyro (GeneID 39271) | DRSC10598 | -0.1 | -0.3 | – | – |
| CG15172 (GeneID 35167) | DRSC02473 | -0.2 | -0.3 | – | – |
| Naprt (GeneID 33626) | DRSC00630 | -0.3 | -0.6 | – | – |
| CG13250 (GeneID 40284) | DRSC11698 | -0.2 | -0.7 | – | – |
| CG7884 (GeneID 32914) | DRSC20065 | -0.5 | -0.5 | – | – |
| knrl (GeneID 40285) | DRSC11892 | -0.2 | 0 | – | – |
| Pde1c (GeneID 34594) | DRSC02421 | -0.1 | -0.1 | – | – |
| Pde1c (GeneID 34594) | DRSC02422 | -0.1 | -0.2 | – | – |
| Pde1c (GeneID 34594) | DRSC02423 | 1.1 | 1.4 | – | – |
| Pde1c (GeneID 34594) | DRSC02424 | 0 | 1.2 | – | – |
| Pde1c (GeneID 34594) | DRSC02425 | 0.1 | 0 | – | – |
| Pde1c (GeneID 34594) | DRSC02426 | -0.4 | 0.3 | – | – |
| CG6209 (GeneID 36517) | DRSC06968 | 0 | -0.1 | – | – |
| CG17994 (GeneID 35550) | DRSC04877 | -0.2 | -0.3 | – | – |
| Dtg (GeneID 41558) | DRSC15998 | -0.3 | -0.4 | – | – |
| CG8298 (GeneID 36282) | DRSC07138 | -0.2 | -0.4 | – | – |
| CG13473 (GeneID 39603) | DRSC10017 | -0.3 | -0.4 | – | – |
| CG11159 (GeneID 37341) | DRSC06050 | 0 | 0.2 | – | – |
| Plzf (GeneID 34622) | DRSC02994 | -0.4 | -0.7 | – | – |
| CG3251 (GeneID 33671) | DRSC00586 | -0.2 | -0.4 | – | – |
| Gk2 (GeneID 38221) | DRSC08610 | -0.2 | -0.1 | – | – |
| CG31126 (GeneID 326121) | DRSC14623 | -0.5 | -0.5 | – | – |
| EbpIII (GeneID 49821) | DRSC04638 | -0.1 | -0.6 | – | – |
| Tsp29Fb (GeneID 34212) | DRSC03233 | -0.3 | -0.4 | – | – |
| udd (GeneID 35781) | DRSC06720 | -0.2 | -0.2 | – | – |
| CG12523 (GeneID 39216) | DRSC09895 | -0.4 | -0.5 | 0.5 | -0.2 |
| Aprt (GeneID 48224) | DRSC08139 | -0.3 | 1 | – | – |
| TfIIS (GeneID 34883) | DRSC03455 | -0.4 | -0.4 | – | – |
| CR14117 (GeneID 39473) | DRSC10121 | -0.3 | -0.1 | – | – |
| CG34165 (GeneID 5740685) | DRSC01970 | -0.2 | 3.7 | 3.6 | 5 |
| CG6421 (GeneID 46813) | DRSC07420 | -0.3 | 0.1 | – | – |
| zda (GeneID 37144) | DRSC06936 | 2.8 | 6.1 | – | – |
